Reference: PubChem BioAssay AID2685 (National Center for Advancing Translational Sciences (NCATS), 2010)
Some of the results follow. Shown are side measurements of this screen, not its main read-out; they come without a call. The list favours compounds with an active or inconclusive main result. Potencies come from curve fits of mixed quality, noted in brackets.

Test: qHTS Assay for Lipid Storage Modulators in Drosophila S3 Cells;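 as to cell number change: cells counted by Cell Tracker Red CMTPX staining in the red channel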
Conditions: BODIPY lipid droplet fluorescence, 18-24 h; for cell number change: measured here: cell count max response, cells fed with added oleic acid
How it was run: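 Laser-scanning cytometry quantifies lipid droplet accumulation (500–530 nm total intensity; droplet/cell object ratio) in oleic acid-fed (400 uM added) Drosophila S3 cells treated with a concentration series. 20 uM Triacsin C defined 100% inhibition.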

[1] = measured here: lipid fluorescence (Fed channel) AC50, cells fed with added oleic acid
[2] = measured here: cell number channel AC50, cells fed with added oleic acid

Compound | cell number change [%] | AC50 [1] | AC50 [2]
O=S(=O)(N/N=C/c1ccc(Cl)cc1)c1ccc(Cc2ncc(C(F)(F)F)cc2Cl)s1 | -3.74 | 0.116 µM [rising, full curve, poor fit] | –
O=C(Cn1cncn1)NCc1cccc(C(F)(F)F)c1 | 34.6 | 1.3 µM [rising, partial curve] | 6.51 µM [rising, partial curve, poor fit]
CCOCCc1nnc(NC(=O)C(C)Oc2ccccc2)s1 (stereo not given) | -26.3 | 7.31 µM [falling, single point] | –
O=C(CNC(=O)C12CC3CC(CC(C3)C1)C2)OCC(=O)N1CCCCC1 | 10 | – | –
COCCNC(=O)C(c1ccc(F)cc1)N(C(=O)CCC(=O)Nc1ccccn1)c1ccc(C)cc1 (stereo not given) | 11.7 | 0.58 µM [rising, single point] | –
CCC1CCCCN1CC(=O)Nc1ccc2c(c1)OCCO2 (stereo not given) | 10.1 | – | 0.731 µM [rising, partial curve, poor fit]
COC(=O)c1sc(SC)c2c1CC(C)(C)C/C2=N/O | -2.77 | – | –
COc1cc2c(cc1NC(=O)CSc1nc3ccc(C)cc3[nH]1)oc1ccccc12 | -59 | 32.6 µM [falling, partial curve, poor fit] | 29.1 µM [falling, single point]
COc1ccc(-c2cc(C(=O)N(C)Cc3cccc(OC)c3OC)c3ccccc3n2)cc1OC | -10.3 | 4.11 µM [rising, partial curve] | –
CCOC(=O)c1c(C)n(-c2ccc(C)cc2)c2ccc(O)c(CN(C)C)c12 | -11.1 | 0.116 µM [falling, full curve, poor fit] | –
O=C(CCNS(=O)(=O)c1ccc(Cl)cc1)N1CCN(c2ncccn2)CC1 | 23.3 | – | –
O=C(O)C1CCN(S(=O)(=O)c2ccc(N3CCOCC3)c([N+](=O)[O-])c2)CC1 | 5.25 | – | –
O=C(Cc1ccc(S(=O)(=O)N2CCOCC2)s1)Nc1nc2c(s1)CCCC2 | -20.5 | – | –
Cc1cc(C(=O)OCC(=O)N2C(C)CCCC2C)c(C)o1 (stereo not given) | -36.2 | 5.17 µM [falling, partial curve, poor fit] | 16.4 µM [falling, partial curve, poor fit]
CCOC(=O)Cn1c(S(=O)(=O)Cc2ccccc2Cl)nc(-c2ccccc2)c1-c1ccccc1 | – | – | 6.51 µM [rising, single point]
C=CCNC(=O)NC(=O)COC(=O)c1cccnc1SC | 14.4 | – | –
NC(=S)NNC(=O)Nc1ccc(Cl)c(Cl)c1 | -50 | – | 29.1 µM [falling, partial curve, poor fit]
COc1ccc(C2=NOC(C(=O)Nc3cccnc3)C2)cc1OC (stereo not given) | 0.191 | – | –
O=C(C1=NN[C@@H]2C(=O)N(Cc3ccccc3)C(=O)[C@H]12)c1ccc(F)cc1 | -38.4 | 6.51 µM [falling, single point] | 18.4 µM [falling, partial curve, poor fit]
CCN(Cc1ccccc1)C(=S)NC(=O)c1ccccc1Br | -8.11 | 29.1 µM [falling, single point] | –
CCOC(=O)CC1(NC(=O)C2CCC(=O)N(C3CC3)C2)CCCCC1 (stereo not given) | 3.42 | 29.1 µM [rising, single point] | –

Compound | cell number change [%] | AC50 [1] | AC50 [2]
Cc1nc2ccc(NC(=O)c3ccc([N+](=O)[O-])cc3[N+](=O)[O-])cc2s1 | -31.8 | – | 16.4 µM [falling, single point]
Cc1nnc(NC(=O)CSc2nnc(Cc3cccn3C)n2CCc2ccccc2)s1 | 7.89 | 0.184 µM [falling, full curve] | –
CN(CC(=O)Nc1ccc(F)cc1[N+](=O)[O-])Cc1ccccc1 | 59.5 | – | 29.1 µM [rising, single point]
Cc1ccc(C(=O)NCc2ccccc2CN2CCCC2)cc1S(=O)(=O)N1CCOCC1 | -3.49 | 6.51 µM [falling, single point] | 6.51 µM [falling, single point]
CCCC(=O)N1CCN(c2nnc(-c3ccc(C)cc3)c3ccccc23)CC1 | 18 | – | –
COc1ccc(/C=N/NC(=O)Cc2cc(OC)c(OC)cc2[N+](=O)[O-])cc1 | – | 23.1 µM [rising, single point] | –
O=C1CSC(c2cccc(F)c2)N1c1ccccc1F (stereo not given) | 19.5 | – | –
COc1ccc(/C=N/NC(=O)C(=O)Nc2ccccn2)cc1OC | 7.03 | 0.116 µM [falling, full curve, poor fit] | –
O=C(O)c1cc(S(=O)(=O)N2CC3CC3C2C(=O)O)c(Cl)cc1Cl (stereo not given) | 1.89 | 29.1 µM [falling, single point] | –
CCc1cccc(CC)c1NC(=O)/C(C#N)=C/c1ccccc1C(F)(F)F | -22.7 | – | –
CCCC(=O)N1CCN(c2ccc(NC(=O)c3ccc([N+](=O)[O-])o3)cc2Cl)CC1 | -47.7 | – | –
Cc1ccc(C)c(C(C)NC(=O)c2ccc(Br)o2)c1 (stereo not given) | 31.4 | – | –
Cc1nnc(SCC(=O)Nc2ccc3c(c2)OCO3)o1 | 4.64 | – | –
Cc1onc(-c2c(F)cccc2Cl)c1C(=O)Nc1ccc(Cl)c(S(=O)(=O)N(C)C)c1 | -8.21 | 29.1 µM [rising, single point] | –
CC(C)C(=O)Nc1cc(-c2nc3ncccc3o2)ccc1Cl | -4.99 | 2.31 µM [falling, partial curve] | –
O=C(Nc1ccc(C2=NCCN2)cc1)c1ccc(C(=O)Nc2ccc(C3=NCCN3)cc2)c(Cl)c1 | 109 | 8.2 µM [rising, partial curve] | 7.31 µM [rising, partial curve]
COc1ccc(-n2nnnc2SCC(=O)Nc2cccc(C)n2)cc1OC | 0.794 | 2.06 µM [rising, full curve] | –
C=CCSc1nc2sc3c(c2c(=O)n1-c1ccccc1)CCN(C)C3 | -4.76 | 0.00461 µM [falling, full curve, poor fit] | –
O=C1N(c2ccccc2)C[C@@H]2C[C@@H](c3cc4ccccc4o3)N3CCC[C@@]123 | -22 | 29.1 µM [falling, single point] | –
COc1cccc(CNC(=O)C2CCN(C(=O)N3CC(C)Oc4ccccc43)CC2)c1 (stereo not given) | -0.865 | 29.1 µM [falling, single point] | –
COC(=O)c1ccc(OCC(=O)N2CCCc3ccccc32)cc1 | 26.2 | 1.16 µM [falling, single point] | –

Compound | cell number change [%] | AC50 [1] | AC50 [2]
O=C(Cn1nnc(-c2ccccc2F)n1)NCCc1ccccc1 | -34.7 | 0.651 µM [falling, single point] | 14.6 µM [falling, partial curve]
O=S(=O)(NCCc1cccs1)c1ccc(Br)cc1 | 15.8 | 35.5 µM [rising, single point] | –
COC(=O)c1cc(Cl)c(NC(=O)/C=C/c2ccc(Cl)cc2)cc1OC | – | 29.1 µM [rising, single point] | –
O=C(CCS(=O)(=O)c1cc2c(cc1Cl)NC(=O)CO2)NCc1ccccc1 | 24.2 | 0.13 µM [rising, full curve, poor fit] | –
Cc1cc2c(c(SCC#N)n1)C(=O)OC2 | -20.5 | 6.51 µM [falling, single point] | 6.51 µM [falling, single point]
c1ccc(Nc2nc(-c3ccccc3)nc3ccccc23)cc1 | -13.1 | 0.13 µM [rising, full curve, poor fit] | –
CC(C)Oc1ccccc1/C=N/Nc1ccccc1[N+](=O)[O-] | -89.6 | 1.03 µM [rising, single point] | 16.4 µM [falling, partial curve]
O=C(NC1CCCc2ccccc21)c1ccccc1OC(F)F (stereo not given) | -2.17 | 0.00461 µM [rising, full curve, poor fit] | –
CCN(CC)C1CCN(C(=O)c2ccc3nc(Cc4ccc(OC)cc4)oc3c2)C1 (stereo not given) | 9.13 | 0.206 µM [rising, partial curve] | –
CC(=O)c1ccc(NC(=O)CO/N=C(\C)c2cccs2)cc1 | 33.8 | – | 29.1 µM [rising, single point]
O=C(Nc1ccc2c(c1)OCO2)C1CCCCC1 | -0.552 | 1.46 µM [rising, partial curve] | –
COc1cccc(-n2c(Cc3cc(=O)[nH]c(=O)[nH]3)nnc2SCC(=O)N2CCCC2)c1 | -41.2 | – | 29.1 µM [falling, single point]
COc1ccc(-c2c(-c3ccccc3OC)oc3ccccc23)cn1 | -7.24 | 16.4 µM [falling, single point] | –
O=C(/C=C/c1cccc(F)c1)OCC(=O)N1CCCc2ccccc21 | – | 3.26 µM [rising, partial curve] | –
Cc1ccc(S(=O)(=O)N(CC(O)CN(C)C)c2ccccc2)cc1 (stereo not given) | -33.1 | 14.6 µM [falling, partial curve, poor fit] | 0.0206 µM [falling, full curve, poor fit]
CN(Cc1ccco1)C(=O)CN1C(=O)NC(c2ccccc2)(c2ccccc2)C1=O | 50 | – | 0.517 µM [rising, full curve]
CCc1noc(C)c1C(=O)Nc1ccc(S(=O)(=O)N2CCCCC2)cc1 | 15.1 | 14.6 µM [rising, partial curve] | –
CCCC[C@H]1COCCS(=O)(=O)N1Cc1cccc(Cl)c1 | -14.9 | – | –
O=C(N/N=C/c1cccc(OCc2ccccc2)c1)c1cccs1 | -8.49 | – | –
CC(C)(C)NC(=O)c1ccccc1-c1nc2ccccc2s1 | -6.89 | 0.184 µM [falling, full curve, poor fit] | –

Arranged by number of heavy atoms (ascending): some entries from above
Compound | cell number change [%] | AC50 [1] | AC50 [2]
Cc1cc2c(c(SCC#N)n1)C(=O)OC2 | -20.5 | 6.51 µM [falling, single point] | 6.51 µM [falling, single point]
CC(C)Oc1ccccc1/C=N/Nc1ccccc1[N+](=O)[O-] | -89.6 | 1.03 µM [rising, single point] | 16.4 µM [falling, partial curve]
c1ccc(Nc2nc(-c3ccccc3)nc3ccccc23)cc1 | -13.1 | 0.13 µM [rising, full curve, poor fit] | –
CN(Cc1ccco1)C(=O)CN1C(=O)NC(c2ccccc2)(c2ccccc2)C1=O | 50 | – | 0.517 µM [rising, full curve]
